The nature of data set [1]: Isoelectric focusing (pI). Format: physicochemical. The protocol: Molecular weight of the T. arenaria and C. thermophilum laccases were determined on SDS-PAGE according to Laemmli (1970) The gels used in the SDS-PAGE analysis were ready-made 12% Tris HCl gels (BioRad). Protein bands were visualized by staining with Coomassie Brilliant Blue (R 350; Pharmacia) and compared with molecular weight markers (Prestained Protein Marker Broad Range #7708S; New England BioLabs, Beverly, Mass.). The molecular weight of the both laccases was approximately 80 kDa. The isoelectric point of the laccases was determined with isoelectric focusing within the pH range of 3-9 (Pharmalyte IEF, Pharmacia) on a LKB 2117 Multiphor II Electrophoresis System (LKB Pharmacia, Bromma, Sweden) according to the manufacturer's instructions.
The purified recombinant Thielavia and Chaetomium laccases were characterized in terms of pH optimum, thermal stability, and pI as described in Example 2. The molecular weight was determined by MALDI-TOF mass spectrometry on a Ultraflex™ time-of-flight instrument (BrukerDaltonics, Germany) as previously described (Palonen et al., 2003). The redox-potentials of the T1 coppers of for CtLcc, and TaLcc2 laccases were determined by photometric copper titration in 0.1 M KH2PO4 (pH 6.0) as described by Xu et al. (1996) using the redox titrant couple K3Fe(CN)6/K4Fe(CN)6. The redox potential of TaLcc1 was determined with a combined Pt—AgCl/KCl microelectrode at pH 5.0 according to Sigoillot et al (2004). The characterization results are collected to Table 14.

Data set [2] can be described thus: pH optimum / pH range of activity on guaiacol. Format: biochemical. Particulars: McIlvaine buffer, guaiacol as substrate.

The values below come from patent US7732178B2, “Laccase enzymes and their uses” (AB Enzymes Oy, priority 2004, dated 2010).

B1: TaLcc3: Thielavia arenaria ALKO 4197 laccase, SEQ ID NO: 43, produced in Trichoderma reesei (protein)
chain: MVCLQYQLTAACFAVLAVVTTPASCSPVQPSPVHDLLPRQTIIPGGKPCGQNNATNRGCWKNNWNITTDYEVDTPPAFNTRVYDLHITNVTNWLGPDGVRKPAMLINGSFPGPTISADWGDYIIVNVHNDMQDNGTSIHWHGIRQLGESNQDGANGVTECPIPPGSSKTYDFHVTQYGTSWYHSHYSNQYGNGVVGALIVRGPASANYDIDLGPYLISDYYYETADRLHLRAELVSNGPPPDSDNILFRGKNINPKRAGSGSYDRLVLTPGKKHLIRLINASVDNSFVISLVGHNFTVISTDMVPITPVVRSSLFMGVGQRYDVIVEANQPVGNYWLNATLEAQNNCGHSVNPFPAAIVQYEGASSTALPTNRGTPLTATCNGEKGFSPIVKRTVSSSLFQPSTLPVSLEFPTTDRGQVFEWRVKNTPISVEWEHPVLEYILQGNTSFPAKANLIEVPQANVWTFWVIQNGFGLPHPIHLHGHDFLVLGVGNGTFDAASMRGLLNFNNPVRRDVEQMPGNGWLVIAFKTDNPGCWLMHCHIGWHVAMGLGIQFLERRSDILALMKLDQMVPNCEAWRAYARTSPYLPKLDSGLKRGVEMREGMEPAVRRIG
modifications: Thielavia arenaria ALKO4197; (1)..(611) Deduced amino acid sequence of Thielavia arenaria LAKO4197 TaLcc3
In the case of B1, the “Number of pI isoforms (bands in isoelectric focusing)” value (“Number of pI isoforms” below) in data set [1] came to 2.

B2: CtLcc1: Chaetomium thermophilum ALKO 4265 laccase, SEQ ID NO: 47, produced in Trichoderma reesei (protein)
chain: MKFLTYATALLGALTAVVGAIPTRSGTKKKYIRDGPGPCHTPSNRACWAPGFDINTDYEVNTPNTGVTRNYTLTLTEEDNWTGPDGVVKEKIMLVNGKTLGPTIEANWGDWIEVKVINNLLTNGTSIHWHGIHQKGSNLHDGANGVTECPIPPNGGQRTYRFRAQQYGTSWYHSHFSAQYGNGIVGPIVIHGPASLPYDIDLGPFPLTDYYYKSADELVRHTQNNGPPFSDNVLFNGTGVHPQTGHGQYAKVTLTPGKRHRLRIINMSTENHFQVSLVGHQFTVIAADMVPVHSYTTDSLFLAVGQRYDVTIDASQTPGNYWFNVTFGGGFACGGSFNPNPAAIFHYEGAPDALPTDPGVPPRDHNCLDTLDLVPVVPRNVQVNQFVKKPENTLPVELSLGGTPLFVWKVNGSAIDVDWGNPVLQYVMDRNTSYRQADNIVEVNGVNQWTYWLIENDPNGAFSLPHPMHLHGHDFLIVGRSPDVPPGSNQRYNFDPATDIYRLRGQNPTRRDVAMLPAGGWLLLAFLTDNPGAWLFHCHIAWHVSGGLSVDFLERPNDLRNSILQHDKDEFNRVCNEWRTYWPNSPHPKIDSGLKHRWVEESEWLVR
modifications: Chaetomium thermophilum ALKO4265; (1)..(607) Deduced amino acid sequence of Chaetomium thermophilum ALKO4265 CtLcc1
As to B2, the figures for the “pH optimum on guaiacol” value in data set [2] and in data set [2] (listed as CtLcc 1) were 5.0 guaiacol and 5.0, respectively. The “Number of pI isoforms” value in data set [1] is on record as 3-4.

B3: TaLcc2: Thielavia arenaria ALKO 4197 laccase, SEQ ID NO: 41, produced in Trichoderma reesei (protein)
chain: MLTETLKSRNMLQSILALLATALGSSAFAIPELPEVSLQPRQACENTATSRQCWGDLSIDTNYYEVLPSTGRPPQEYWLSVVEGPCAPDGYNRTCMTFNGTVPGPTLFADWGDELVIHVTNNMVNNGTAIHWHGIRMLNNTLNDGVPGVTQCAIAPGESMTYRFNVTQYGSTWYHSHFSLQYAEGLFGGMILRGPSTANWDEDLGVLFLQDWSHVEAFTRWHEAKAGFPPSLDGGLINGTNTFDCSTLSPTDPKCTGNGKKFETVFEPGKKYLIRLINVAIDGVFQFSIDGHSLTVIATDLVPIVPYTTDSVQITIGQRYDIIVEANATPGNYWMRADWVTACVTNDHPEHMTGIVRYDASSIDPPTSESNVTKTSSCLGEPNEKTIPHLSLDVTNIGGTNVEELSFDTTSGDYFQWTLNTSSLVLDWGNPTMARIFNGDAIFPTEYNVVAVNKTGTGPEWTVLVIQDQSNLPIAHPIHLHGHDFWVLAAEEGVFNGNISSFNTRNPARRDVATLPGRGYLAIAFQIDNPGTWLTHCHIAWHASQGLSLEFVESQSEIVTDEVSRGVFNDVCASWRAHDPLWEQEDSGI
modifications: Thielavia arenaria ALKO4197; (1)..(589) Deduced amino acid sequence of Thielavia arenaria ALKO4197 TaLacc2
As to B3, the “Number of pI isoforms” value in data set [1] is 1.

B4: TaLcc4: Thielavia arenaria ALKO 4197 laccase, SEQ ID NO: 45, produced in Trichoderma reesei (protein)
chain: MISRLLFTSSFTATLASALPGLLYAPHSSALLARSSCSGNTASTRSQWCDYSIDTDYTTEPVDTGVTREYWLELTDVTVSPDGVSRSAMAVNGSIPGPTIFADWGDTVVVHVTNSLSTSLNGTSIHWHGIRQNYTNQNDGVASITQCPLAVGESTTYTWKATQYGSSWYHSHFSLQAWEGVFGGIIINGPSTANYDEDLGMLFLNDWDHQTVDELYSSAETSGPPTLANGLINGTNVYGEDGDSSQTGTRLAVSFTSGTSYRMRLVNAAVDTHWKFSIGNHTMTVMAADLVPIEPYETTVLTIGMGQRYDIVVTADQADVADNFWMRAIPQSACSDNDSADNIRGIVYYGDSPGTPSTTGYDFEDACDDETANITPYISKTVSSAEWNDLETASVSRNSAGLFKWYLNSTTMLVDWAKPTLEMVTDNVTEYDSDDAIIELNEANQWVYMVVQTTLQVPHPIHLHGHDFFILAQGSGTYDSSTVTLKTDNPPRRDTAMLPSQGYLVMAWETDNPGVWLMHCHIGWHTSEGFALQFIERKSEIASIVSTSTMKDICTKWEEFQEEYSIEQEDSGV
modifications: Thielavia arenaria ALKO4197; (1)..(573) Deduced amino acid sequence of Thielavia arenaria ALKO4197 TaLcc4
With B4, the “Number of pI isoforms” value in data set [1] is recorded as 1.

B5: TaLcc1: Thielavia arenaria ALKO 4197 laccase, SEQ ID NO: 39, produced in Trichoderma reesei (protein)
chain: MKSWAAAVALMVGILSPHAAAAPPANPVQRDMLQVLEARQSGPTCNTPSNRACWTNGFDINTDYEVSTPNTGRTVAYQLTLTEKENWIGPDGVLKNVVMLVNDKIIGPTIRANWGDNIEVTVINNLKTNGTSMHWHGLRQLGNVFNDGANGVTECPIPPKGGRKTYKFRATQYGTSWYHSHFSAQYGNGVVGTIQIDGPASLPYDIDLGVFPLMDYYYRSADELVHFTQSNGAPPSDNVLFNGTARHPETGAGQWYNVTLTPGKRHRLRIINTSTDNHFQVSLVGHNMTVIATDMVPVNAFTVSSLFLAVGQRYDVTIDANSPVGNYWFNVTFGDGLCGSSNNKFPAAIFRYQGAPATLPTDQGLPVPNHMCLDNLNLTPVVTRSAPVNNFVKRPSNTLGVTLDIGGTPLFVWKVNGSAINVDWGKPILDYVMSGNTSYPVSDNIVQVDAVDQWTYWLIENDPTNPIVSLPHPMHLHGHDFLVLGRSPDELPSAGVRHIFDPAKDLPRLKGNNPVRRDVTMLPAGGWLLLAFKTDNPGAWLFHCHIAWHVSGGLSVDFLERPNDLRTQLNSNAKRADRDDFNRVCREWNAYWPTNPFPKIDSGLRHRFVEESEWMVR
modifications: Thielavia arenaria ALKO4197; (1)..(617) Deduced amino acid sequence of Thielavia arenaria ALKO4197 TaLcc1
For B5, the “pH optimum on guaiacol” value in data set [2] is reported as 6.0 guaiacol. In data set [1], the “Number of pI isoforms” value was 6-7.
